Data published in PMC2176068.
For some assays here: A weaker result is weaker than the reference pair of the same experiment. For some assays here: Construct, isoform or probe ends are uncertain for at least one entry. For some assays here: At least one verdict was read from the data and is not stated in words by the source.

By UniProt entry, the sequences of proteins in these tests, tags left out. Residues count along the entry.
UniProt P51858, 35-237, stated change not applied: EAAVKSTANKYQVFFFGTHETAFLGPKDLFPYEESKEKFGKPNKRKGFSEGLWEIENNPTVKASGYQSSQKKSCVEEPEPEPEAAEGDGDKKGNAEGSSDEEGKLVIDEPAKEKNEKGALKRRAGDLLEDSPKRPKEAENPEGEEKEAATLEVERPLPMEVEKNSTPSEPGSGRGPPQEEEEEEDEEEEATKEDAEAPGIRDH

Columns and labels:
[1] = biological target: GST-HDGF Δ35-237 (Homo sapiens) (UniProt P51858); assay: EMSA; conditions: 10 mM Tris pH 7.5, 50 mM KCl, 1 mM DTT, 5% glycerol, 0.05% NP-40, 0.1 ug sheared salmon sperm DNA; 1 ug protein, 0.25 pmol probe, 30 min on ice; 5% PAGE in 0.1x TBE; recombinant protein; residues 35-237; protein details: N-terminal GST; label: 5' biotin (sense strand)
GST-HDGF (Homo sapiens) = GST-HDGF (Homo sapiens) (UniProt P51858); assay: EMSA; conditions: 10 mM Tris pH 7.5, 50 mM KCl, 1 mM DTT, 5% glycerol, 0.05% NP-40, 0.1 ug sheared salmon sperm DNA; 1 ug protein, 0.25 pmol probe, 30 min on ice; 5% PAGE in 0.1x TBE; recombinant protein; protein details: N-terminal GST (pGEX-4T2); label: 5' biotin; letters put together from the description

Row | Sequence | binding result [1] | binding result (GST-HDGF (Homo sapiens))
1 | CAGGCTGGTCTTGAACTCCTGACCTCAGATGATCCATGTGCCTCGGCCTCCCAAGGTGGGGATTACAGGCGTGAGCCACC (double strand) [SMYD1 promoter 80 bp probe] | binds more weakly | –
2 | CAGGCTGGTCTTGAACTCCTGACCTCAGATGATCCATGTGCCTCGGCCTC (double strand) [50 bp probe (3' deletion)] | – | binds
